Laboratory results taken from patent publication US20240366776A1 (Hoffmann-La Roche, published 2024).
These are yes or no findings as the source states them, for the method shown. Some binding calls cover weakened binding; strength is not graded here.

The chains behind the UniProt entries cited, without tags or fusion partners. Residues count along the entry.
UniProt Q15116, residues 25-167: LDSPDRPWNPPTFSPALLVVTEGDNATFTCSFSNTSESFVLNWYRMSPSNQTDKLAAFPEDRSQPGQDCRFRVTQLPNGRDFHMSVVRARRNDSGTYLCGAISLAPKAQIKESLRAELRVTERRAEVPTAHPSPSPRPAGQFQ

B1: PD1-IL2-R07-A09 (SEQ ID NO: 34) (scFv)
scFv: QVQLVQSGAEVKKPGASVKVSCKASGYTFTSYYMHWVRQAPGQGLEWMGIINPSDGSTTYAQSFQGRVTMTRDTSTSTVYMELSSLRSEDTAVYYCASGWDVWGQGTLVTVSSASGGGGSGGGGSGGGGSHASDIVMTQSPDSLAVSLGERATINCKSSQSVFSSANNKNYLAWYQQKPGQPPKLLIYWASTRESGVPDRFSGSGSGTDFTLTISSLQAEDVAVYYCQQYFGTPVTFGGGTKVEIK
notes: V5-tagged in the assay
B2: PD1-IL2-R02-C02 (SEQ ID NO: 31) (scFv)
scFv: QVQLVQSGAEVKKPGVSVKVSCKASGYTFPRSYIHWVRQAPGQGLEWMGWINPHSGDTYYAQNFQGRVTMTRDTSTSTVYMELSSLRSEDTAVYYCARDTGLGYYYGSGDFDYWGQGTLVTVSSASGGGGSGGGGSGGGGSHASDIQMTQSPSSLSASVGDRVTITCRASQSISRYLNWYQQKPGKAPKLLIYTASSLQSGVPSRFSGSGSGTDFTLTISSLQPEDFATYYCQQANRFPLTFGPGTKVDIK
notes: V5-tagged in the assay
B3: PD1-IL2-R02-C03 (SEQ ID NO: 32) (scFv)
scFv: QVQLVQSGAEVKKPGASVKVSCKASGYTFPRYHIHWVRQAPGQGLEWMGMINPSGGTTTYAQKFQGRVTMTRDTSTSTVYMELSSLRSEDTAVYYCARDTGLGYYYGSGDFDYWGQGTLVTVSSASGGGGSGGGGSGGGGSHASDIQMTQSPSSLSASVGDRVTITCRASQSISSWLAWYQQKPGKAPKLLIYAASSLQSGVPSRFSGSGSGTDFTLTISSLQPEDFATYYCQQSHSFPLTFGGGTKVEIK
notes: V5-tagged in the assay
B4: PD1-IL2-R06-E04 (SEQ ID NO: 33) (scFv)
scFv: QVQLVQSGAEVKKPGASVKVSCKASGYTFTRYYIHWVRQAPGQGLEWMGWINAYNGDTNYAQKLQGRVTMTRDTSTSTVYMELSSLRSEDTAVYYCARDSYYYDSFDYWGQGTLVTVSSASGGGGSGGGGSGGGGSHASDIQMTQSPSSLSASVGDRVTITCRASQTITDWLAWYQQKPGKAPKLLIYGASNLQGGVPSRFSGSGSGTDFTLTISSLQPEDFATYYCQQYYSSWTFGQGTKVEIK
notes: V5-tagged in the assay

These binders were tested against PD-1 (human, UniProt Q15116 25-167, limits assumed) (assay: HTRF).
With B1 the binding was “binds”. For B2, the binding was “binds”. In the case of B3, the binding is reported as “binds”. In the case of B4, the binding is reported as “binds”.
